Laboratory results taken from paper PMC12102760.
These are yes or no findings as the source states them, for the method shown. Some binding calls cover weakened binding; strength is not graded here.

By UniProt entry, the sequences of proteins in these tests, tags left out. Residues count along the entry.
UniProt P29317, residues 24-537: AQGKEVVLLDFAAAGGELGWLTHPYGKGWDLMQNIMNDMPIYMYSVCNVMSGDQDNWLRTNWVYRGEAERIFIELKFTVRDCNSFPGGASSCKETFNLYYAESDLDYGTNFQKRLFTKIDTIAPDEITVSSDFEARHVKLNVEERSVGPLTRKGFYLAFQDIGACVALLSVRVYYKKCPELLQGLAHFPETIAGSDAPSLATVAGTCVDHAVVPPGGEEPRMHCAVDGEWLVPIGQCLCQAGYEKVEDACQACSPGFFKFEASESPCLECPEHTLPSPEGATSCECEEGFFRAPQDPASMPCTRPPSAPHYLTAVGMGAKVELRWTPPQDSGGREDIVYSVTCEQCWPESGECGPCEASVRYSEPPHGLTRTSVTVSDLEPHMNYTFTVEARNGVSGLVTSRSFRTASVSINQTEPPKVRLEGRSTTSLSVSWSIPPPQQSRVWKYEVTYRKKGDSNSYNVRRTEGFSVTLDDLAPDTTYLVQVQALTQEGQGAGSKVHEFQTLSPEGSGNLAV
UniProt P20827, residues 19-182: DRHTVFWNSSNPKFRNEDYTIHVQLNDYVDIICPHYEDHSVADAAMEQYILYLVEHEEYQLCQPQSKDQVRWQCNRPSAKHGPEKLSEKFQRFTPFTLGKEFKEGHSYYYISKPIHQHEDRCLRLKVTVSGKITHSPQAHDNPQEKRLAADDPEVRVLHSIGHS

Target: EphA2 extracellular domain (ECD) (human) (UniProt P29317)
Assay: SEC; IgG:EphA2 1:2.5 molar (DFF F1:EphA2 1:5), on ice 30 min, PBS pH 7.0, Superose 6 Increase 10/300 GL; legend: 200 nM IgG or EfnA1-Fc, 100 nM DFF, 500 nM EphA2; both purified

How did the binding turn out when “EfnA1-Fc (from UniProt P20827 19-182) (Fc fusion)” was run?
Its binding is “binds”.
